Results are given in words; binding and its absence hold for the method and conditions named. In cells and extracts the contact can be indirect. Some entries that bind do so weakly or less than the wild type. For part of these data: Sequences can lack the tags named with a protein.
Tests used:
[1] = biological target: Flag-VRK2 (vaccinia-related kinase 2) (human) (UniProt Q86Y07)
[2] = biological target: GST-VRK2 fusion protein (human) (UniProt Q86Y07); assay: pull-down; 10 μg GST-VRK2 fusion protein incubated with lysate of pancreatic cancer cells overnight at 4°C, then glutathione-Sepharose 4 h at 4°C; western blot; only the target purified

The chains behind the UniProt entries cited, without tags or fusion partners.
UniProt Q9Y6K9, whole entry: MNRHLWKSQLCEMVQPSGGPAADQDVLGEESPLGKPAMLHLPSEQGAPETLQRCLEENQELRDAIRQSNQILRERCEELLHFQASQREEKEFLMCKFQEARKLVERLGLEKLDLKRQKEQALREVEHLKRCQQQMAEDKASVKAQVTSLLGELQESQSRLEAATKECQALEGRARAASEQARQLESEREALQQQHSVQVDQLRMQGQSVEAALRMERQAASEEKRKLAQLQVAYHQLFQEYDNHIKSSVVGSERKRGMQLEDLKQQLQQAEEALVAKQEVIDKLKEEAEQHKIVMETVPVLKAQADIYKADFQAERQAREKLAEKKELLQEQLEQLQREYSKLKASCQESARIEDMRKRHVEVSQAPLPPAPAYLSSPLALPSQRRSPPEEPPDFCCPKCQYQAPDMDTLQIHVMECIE

Row | Molecule | binding [1] | binding [2]
1 | IKKγ (from UniProt Q9Y6K9 1-419) | no binding | –
2 | HA-IKKβ (enzyme, UniProt O14920 1-756) MSWSPSLTTQTCGAWEMKERLGTGGFGNVIRWHNQETGEQIAIKQCRQELSPRNRERWCLEIQIMRRLTHPNVVAARDVPEGMQNLAPNDLPLLAMEYCQGGDLRKYLNQFENCCGLREGAILTLLSDIASALRYLHENRIIHRDLKPENIVLQQGEQRLIHKIIDLGYAKELDQGSLCTSFVGTLQYLAPELLEQQKYTVTVDYWSFGTLAFECITGFRPFLPNWQPVQWHSKVRQKSEVDIVVSEDLNGTVKFSSSLPYPNNLNSVLAERLEKWLQLMLMWHPRQRGTDPTYGPNGCFKALDDILNLKLVHILNMVTGTIHTYPVTEDESLQSLKARIQQDTGIPEEDQELLQEAGLALIPDKPATQCISDGKLNEGHTLDMDLVFLFDNSKITYETQISPRPQPESVSCILQEPKRNLAFFQLRKVWGQVWHSIQTLKEDCNRLQQGQRAAMMNLLRNNSCLSKMKNSMASMSQQLKAKLDFFKTSIQIDLEKYSEQTEFGITSDKLLLAWREMEQAVELCGRENEVKLLVERMMALQTDIVDLQRSPMGRKQGGTLDDLEEQARELYRRLREKPRDQRTEGDSQEMVRLLLQAIQSFEKKVRVIYTQLSKTVVCKQKALELLPKVEEVVSLMNEDEKTVVRLQEKRQKELWNLLKIACSKVRGPVSGSPDSMNASRLSQPGQLMSQPSTASNSLPEPAKKSEELVAEAHNLCTLLENAIQDTVREQDQSFTALDWSWLQTEEEEHSCLEQAS | binds | –
3 | endogenously expressed IKKβ (enzyme, UniProt O14920 1-756) MSWSPSLTTQTCGAWEMKERLGTGGFGNVIRWHNQETGEQIAIKQCRQELSPRNRERWCLEIQIMRRLTHPNVVAARDVPEGMQNLAPNDLPLLAMEYCQGGDLRKYLNQFENCCGLREGAILTLLSDIASALRYLHENRIIHRDLKPENIVLQQGEQRLIHKIIDLGYAKELDQGSLCTSFVGTLQYLAPELLEQQKYTVTVDYWSFGTLAFECITGFRPFLPNWQPVQWHSKVRQKSEVDIVVSEDLNGTVKFSSSLPYPNNLNSVLAERLEKWLQLMLMWHPRQRGTDPTYGPNGCFKALDDILNLKLVHILNMVTGTIHTYPVTEDESLQSLKARIQQDTGIPEEDQELLQEAGLALIPDKPATQCISDGKLNEGHTLDMDLVFLFDNSKITYETQISPRPQPESVSCILQEPKRNLAFFQLRKVWGQVWHSIQTLKEDCNRLQQGQRAAMMNLLRNNSCLSKMKNSMASMSQQLKAKLDFFKTSIQIDLEKYSEQTEFGITSDKLLLAWREMEQAVELCGRENEVKLLVERMMALQTDIVDLQRSPMGRKQGGTLDDLEEQARELYRRLREKPRDQRTEGDSQEMVRLLLQAIQSFEKKVRVIYTQLSKTVVCKQKALELLPKVEEVVSLMNEDEKTVVRLQEKRQKELWNLLKIACSKVRGPVSGSPDSMNASRLSQPGQLMSQPSTASNSLPEPAKKSEELVAEAHNLCTLLENAIQDTVREQDQSFTALDWSWLQTEEEEHSCLEQAS | – | binds

From publication PMC8771851
